{"source": "PubChem BioAssay AID540276", "about": "(National Center for Advancing Translational Sciences (NCATS), 2011)", "note": "Screen size: about 300,000 compounds; about 5,400 (1.8%) were called active. This list was built around the results that the source calls inconclusive (neither active nor inactive); the mix of calls is not that of the screen. Calls come from the whole dose curve; tested in HEK293 cells. Potencies beside an inconclusive call are fits to weak or partial responses and may not hold up. Potency is the fitted concentration of half-maximal effect.", "data": [{"assay": "qHTS for inhibitors of binding or entry into cells for Marburg Virus", "details": "Marburg virus pseudotyped entry inhibition, cell reporter; series mostly up to 37.8 µM", "values": [{"smiles": "COc1ccc(-c2cc(C(=O)NCCCn3ccnc3)no2)cc1OC", "Potency": "inconclusive: 35.5 µM [activator, single point]"}, {"smiles": "Cc1ccc(Nc2nnc(SCC(=O)Nc3ncc(C(F)(F)F)cc3Cl)s2)cc1", "Potency": "inconclusive: 10 µM [activator, single point]"}, {"smiles": "Cn1cnnc1Sc1nc2c(c(=O)n(C)c(=O)n2C)n1Cc1ccccc1Cl", "Potency": "inconclusive: 29.1 µM [activator, single point]"}, {"smiles": "COc1cc(OC)nc(Oc2cccc(C(F)(F)F)c2)n1", "Potency": "inconclusive: 1.41 µM [activator, partial curve]"}, {"smiles": "Cc1ccc(C)c(-n2nnc(C(=O)Nc3ccc(Br)cc3)c2C)c1", "Potency": "inactive"}, {"smiles": "CCC(C)NS(=O)(=O)c1ccc(OCC(=O)NCc2ccc(OC)cc2)cc1", "note": "(stereo not given)", "Potency": "inconclusive: 20 µM [inhibitor, single point]"}, {"smiles": "O=C(CCN1CCCC1)Nc1ccc(Br)cc1", "Potency": "inactive"}, {"smiles": "CCOc1ccccc1N1CCN(C(=O)Nc2cccc(Cl)c2)CC1", "Potency": "inconclusive: 17.8 µM [inhibitor, single point]"}, {"smiles": "Cc1ccc(S(=O)(=O)NNC(=O)C2CCN(Cc3ccccc3)CC2)cc1", "Potency": "inconclusive: 10 µM [activator, single point]"}, {"smiles": "CCNS(=O)(=O)c1ccc(NC(=O)Cn2cc([N+](=O)[O-])cn2)cc1", "Potency": "inconclusive: 3.55 µM [activator, single point]"}, {"smiles": "Cc1ccc(F)cc1NC(=O)N1CCCN(c2ccc(C(F)(F)F)cn2)CC1", "Potency": "inconclusive: 35.5 µM [inhibitor, single point]"}, {"smiles": "O=C(Nc1nc2c(F)c(F)c(F)cc2s1)c1ccco1", "Potency": "inconclusive: 2.51 µM [activator, single point]"}, {"smiles": "CC1CN(C(=O)c2ccccc2C(=O)c2ncc[nH]2)CC(C)O1", "note": "(stereo not given)", "Potency": "inactive"}, {"smiles": "COc1ccc(NC(=O)C2C3C=CC4(O3)C2C(=O)N(CCN2CCCCC2C)C4C(=O)NC2CCCC(C)C2C)cc1", "note": "(stereo not given)", "Potency": "inconclusive: 14.1 µM [inhibitor, partial curve, poor fit]"}, {"smiles": "CCC=CCCC(OC(=O)c1ccc(Br)cc1)C1=CCCCC1=O", "note": "(stereo not given)", "Potency": "inconclusive: 5.31 µM [activator, partial curve, poor fit]"}, {"smiles": "C=CCNC(=S)Nc1ccc(C(N)=O)cc1", "Potency": "inactive"}, {"smiles": "NS(=O)(=O)c1cccc(NC(=O)COC(=O)CCc2ccccc2)c1", "Potency": "inactive"}, {"smiles": "Fc1ccc(Nc2c(-c3ccccn3)nc3ccc(Cl)cn23)cc1", "Potency": "inactive"}, {"smiles": "COc1ccc(OC)c(NC(=O)CCNC(=O)Cn2cnc3ccccc3c2=O)c1", "Potency": "inactive"}, {"smiles": "O=C(Nc1ccc2ccccc2c1)C(c1ccccc1)C1CCCC1", "note": "(stereo not given)", "Potency": "inconclusive: 0.517 µM [inhibitor, full curve, poor fit]"}, {"smiles": "Cc1cc(C)c[n+](C(C)C(=O)c2ccc(Cl)cc2)c1", "note": "(stereo not given)", "Potency": "inactive"}, {"smiles": "Cc1ccc(Cn2ccc(NC(=O)c3cc(-c4ccc(Br)cc4)on3)n2)cc1", "Potency": "inactive"}, {"smiles": "CCOc1cccc(C(=O)NC(=S)Nc2cccnc2)c1", "Potency": "inconclusive: 2.51 µM [activator, full curve, poor fit]"}, {"smiles": "Cc1cc(=O)c2ccc(Cl)cc2[nH]1", "Potency": "inactive"}, {"smiles": "COc1ccc(/C=N/NC(=O)CN2CCCCCCC2)c(C)c1C", "Potency": "inconclusive: 35.5 µM [inhibitor, single point]"}, {"smiles": "O=C(NC(=S)Nc1ccc(Cc2ccncc2)cc1)c1ccccc1F", "Potency": "inconclusive: 20 µM [inhibitor, single point]"}, {"smiles": "O=C(CC1Sc2ccccc2NC1=O)OCc1cc(=O)oc2cc(O)ccc12", "note": "(stereo not given)", "Potency": "inconclusive: 0.316 µM [activator, partial curve, poor fit]"}, {"smiles": "CCCCOCCCNC(=O)c1cccc(OC)c1", "Potency": "inconclusive: 1.26 µM [activator, single point]"}, {"smiles": "CC(=O)n1nc(-c2ccc(C)cc2)nc1NCc1ccco1", "Potency": "inactive"}, {"smiles": "COc1ccc(-n2c(=O)c3c4c(sc3n(Cc3ccc(C(C)(C)C)cc3)c2=O)CCC4)c(OC)c1", "Potency": "inconclusive: 35.5 µM [inhibitor, single point]"}, {"smiles": "Cc1nc(SCC(=O)Nc2nc3ccccc3s2)c(C#N)c(C)c1C", "Potency": "inconclusive: 0.259 µM [inhibitor, full curve, poor fit]"}, {"smiles": "Cn1c(=O)[nH]c(=O)c2cc(C(=O)c3cc(F)ccc3O)cnc21", "Potency": "inactive"}, {"smiles": "Cc1ccc(Cl)cc1N1CCN(C(=O)c2ccc3c(c2)N(Cc2ccccc2)CCS3)CC1", "Potency": "inactive"}, {"smiles": "CC1CCN(S(=O)(=O)c2ccc(NC(=O)c3ccco3)cc2)CC1", "Potency": "inconclusive: 3.55 µM [activator, single point]"}, {"smiles": "Cc1ccnc(NC(c2ccsc2)c2ccc3ccc(C)nc3c2O)c1", "note": "(stereo not given)", "Potency": "inconclusive: 12.6 µM [inhibitor, partial curve, poor fit]"}, {"smiles": "CCOC(=O)CCN1C(=O)[C@H]2[C@H]3[C@H](O)[C@H](O)C/C(=N/NC(=O)OCc4ccccc4)[C@H]3CC[C@@H]2C1=O", "Potency": "inconclusive: 12.5 µM [activator, partial curve]"}, {"smiles": "O=c1[nH]c(=O)n([C@H]2C[C@H](O)[C@@H](CO)O2)cc1Br", "Potency": "inactive"}, {"smiles": "CCCCC(c1nnnn1CS(=O)(=O)c1ccc(C)cc1)N1CCN(C)CC1", "note": "(stereo not given)", "Potency": "inconclusive: 10 µM [inhibitor, partial curve, poor fit]"}, {"smiles": "O=C(CCCOc1ccc(Cl)cc1Cl)NCCc1nnc2ccccn12", "Potency": "inactive"}, {"smiles": "CSc1ccc(-c2cc(=O)c3ccccc3o2)cc1", "Potency": "inconclusive: 6.51 µM [activator, single point]"}, {"smiles": "COc1cccc(CC(Cc2nc3ccccc3[nH]2)c2nc3ccccc3[nH]2)c1", "note": "(stereo not given)", "Potency": "inactive"}, {"smiles": "CN1C(=O)C2(NCCc3c2[nH]c2ccccc32)c2ccccc21", "note": "(stereo not given)", "Potency": "inactive"}, {"smiles": "COc1cc2c(cc1OC)C(c1cc3cc4c(cc3[nH]c1=O)OCO4)N(C(=O)C1CC1)CC2", "note": "(stereo not given)", "Potency": "inconclusive: 18.3 µM [inhibitor, partial curve, poor fit]"}, {"smiles": "C=CCN1C(=O)/C(=C/C(=O)OC)S/C1=N\\NC(=O)c1ccccc1", "Potency": "inconclusive: 12.6 µM [inhibitor, partial curve, poor fit]"}, {"smiles": "COc1ccc(NC(=O)c2c(C)oc3ccc(O)c(CN4CCCCCC4)c23)cc1", "Potency": "inconclusive: 2.82 µM [inhibitor, full curve, poor fit]"}]}]}
